From paper PMC4636238 come the findings set out here.

The target in the test is T1, salivary amylase (human) (UniProt P0DUB6).
T1 sequence: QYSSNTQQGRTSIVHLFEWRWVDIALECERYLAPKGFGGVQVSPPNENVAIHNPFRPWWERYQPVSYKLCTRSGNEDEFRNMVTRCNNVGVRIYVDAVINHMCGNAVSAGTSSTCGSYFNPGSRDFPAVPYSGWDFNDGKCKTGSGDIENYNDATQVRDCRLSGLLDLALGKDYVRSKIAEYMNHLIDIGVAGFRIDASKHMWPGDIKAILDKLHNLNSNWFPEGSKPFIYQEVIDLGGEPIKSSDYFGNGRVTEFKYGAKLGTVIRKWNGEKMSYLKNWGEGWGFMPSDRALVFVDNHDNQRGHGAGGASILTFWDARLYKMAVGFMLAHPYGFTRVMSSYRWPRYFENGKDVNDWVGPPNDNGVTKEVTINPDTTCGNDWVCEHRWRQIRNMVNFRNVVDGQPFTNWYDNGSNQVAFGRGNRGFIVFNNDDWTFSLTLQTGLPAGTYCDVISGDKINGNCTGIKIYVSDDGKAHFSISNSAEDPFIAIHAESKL
Description: native gel or EMSA; 40 nmol/mL synthetic histatin 5 with 40 nmol/mL salivary amylase in 50 mM NaCl, pH 7.0, 37°C, 2 h; complex recovered on a PD-10 desalting Sephadex column; 12% native PAGE; both purified.

Results are given in words; binding and its absence hold for the method and conditions named. Some entries that bind do so weakly or less than the wild type. Tags and fused reporters may be left off the sequences shown.

Regarding DSHAKRHHGYKRKFHEKHHSHRGY (peptide, UniProt P15516 20-43) [histatin 5], the binding entry is reported as “binds”.
